Values quoted from earlier work as cited in patent US20250352523A1, “TRIPLE PHARMACEUTICAL COMPOSITION FOR PROTEINACEOUS INFECTION” (priority 2024, published 2025).
For at least one compound, name, drawing or mass did not settle the structure.

Experiments:
[1] = test system: patients with AD; conditions: human, in vivo
[2] = test system: AD patients; conditions: twelve months' treatment, versus placebo

SMILES	cognitive function in patients with AD [1]	effects on cognition or function in AD [2]
Cc1ccc(-c2cc(C(F)(F)F)nn2-c2ccc(S(N)(=O)=O)cc2)cc1 [Celecoxib]	did not improve cognitive function	–
C[C@H]1c2cccc(O)c2C(=O)C2=C(O)[C@]3(O)C(=O)C(C(N)=O)=C(O)[C@@H](N(C)C)[C@@H]3[C@@H](O)[C@@H]21 [doxycycline]	–	no beneficial effects
